The list shows a part of the results. Cut-off read from the data, not from the text of the source: active = 1.25 or more and inactive = the rest. Repeats are few or missing, and single values can be far off.
Each compound was assayed on Kcc2-LUC knock-in mouse primary cortical neurons (Kcc2 promoter reporter) (assay: Kcc2 promoter-driven luciferase activity relative to vehicle control (fold of vehicle (ratio)); higher = stronger Kcc2 promoter activation (Kcc2 expression enhancer)). Conditions: 100 nM; 48 h.
For `N#CC(=S)Nc1ccc(Cl)c(Cl)c1` [1-Cyano-N-(3,4-dichlorophenyl)methanethioamide], the “Kcc2 promoter-driven luciferase activity” value was inactive: 1.08. `O=C1c2ccccc2C(=O)c2sc(Nc3ccc(Cl)cc3)nc21` [2-(4-Chloroanilino)benzo[f][1,3]benzothiazole-4,9-dione] was tested, and the “Kcc2 promoter-driven luciferase activity” value was inactive: 0.87. In the case of `NC(=S)N/N=C/c1ccc(OC(=O)COc2ccccc2Cl)cn1`, the “Kcc2 promoter-driven luciferase activity” value was active: 1.4. In the case of `C/C(=N\Nc1nc2ccccc2s1)c1ccncn1`, the “Kcc2 promoter-driven luciferase activity” value was inactive: 0.57. For `COC(=O)C[S+]([O-])c1ccccc1` (centres undefined) [Methyl 2-(benzenesulfinyl)acetate], the “Kcc2 promoter-driven luciferase activity” value was inactive: 0.96. `BrC(/C=N/Nc1nnc(-c2ccccc2)c(-c2ccccc2)n1)C(Br)c1ccccc1` (centres undefined) was tested, and the “Kcc2 promoter-driven luciferase activity” value was inactive: 0.79. In the case of `C=C1C(=O)O[C@H]2[C@H]1[C@H](OC(=O)/C(C)=C\C)CC(=C)[C@@H]1[C@H](O)[C@H]3O[C@@]3(C)[C@@]12O` [Eupatundin], the “Kcc2 promoter-driven luciferase activity” value was inactive: 0.59. `OC[C@H]1O[C@@H]2O[C@H]3[C@H](O)[C@@H](O)[C@@H](O[C@H]4[C@H](O)[C@@H](O)[C@@H](O[C@H]5[C@H](O)[C@@H](O)[C@@H](O[C@H]6[C@H](O)[C@@H](O)[C@@H](O[C@H]7[C@H](O)[C@@H](O)[C@@H](O[C@H]8[C@H](O)[C@@H](O)[C@@H](O[C@H]1[C@H](O)[C@H]2O)O[C@@H]8CO)O[C@@H]7CO)O[C@@H]6CO)O[C@@H]5CO)O[C@@H]4CO)O[C@@H]3CO` was tested, and the “Kcc2 promoter-driven luciferase activity” value was inactive: 0.77. With `Nc1nc(SCc2ccccc2Cl)c2ncn(C3OC(CO)C(O)C3O)c2n1` (centres undefined) the “Kcc2 promoter-driven luciferase activity” value was inactive: 0.43.

— the supplement of paper PMC8551327
